{"sequences": {"note": "Chains of the proteins cited; added tags and fusions are not shown.", "UniProt Q13838": "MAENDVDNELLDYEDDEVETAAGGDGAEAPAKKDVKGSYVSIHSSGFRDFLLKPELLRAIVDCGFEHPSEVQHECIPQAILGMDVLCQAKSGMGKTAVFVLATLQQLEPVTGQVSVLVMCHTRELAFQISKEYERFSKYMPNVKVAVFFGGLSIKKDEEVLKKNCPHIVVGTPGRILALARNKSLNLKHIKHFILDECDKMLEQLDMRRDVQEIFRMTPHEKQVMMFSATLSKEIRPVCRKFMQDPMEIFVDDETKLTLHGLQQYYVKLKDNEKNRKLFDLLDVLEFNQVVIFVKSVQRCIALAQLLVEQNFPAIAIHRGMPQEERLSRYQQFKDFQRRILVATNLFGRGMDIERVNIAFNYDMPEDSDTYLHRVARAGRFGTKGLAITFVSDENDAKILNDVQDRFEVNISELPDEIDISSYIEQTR"}, "source": "paper PMC9381590", "binders": {"B1": {"name": "PFKP (protein, UniProt Q01813 1-784)", "chain": "MDADDSRAPKGSLRKFLEHLSGAGKAIGVLTSGGDAQGMNAAVRAVVRMGIYVGAKVYFIYEGYQGMVDGGSNIAEADWESVSSILQVGGTIIGSARCQAFRTREGRLKAACNLLQRGITNLCVIGGDGSLTGANLFRKEWSGLLEELARNGQIDKEAVQKYAYLNVVGMVGSIDNDFCGTDMTIGTDSALHRIIEVVDAIMTTAQSHQRTFVLEVMGRHCGYLALVSALACGADWVFLPESPPEEGWEEQMCVKLSENRARKKRLNIIIVAEGAIDTQNKPITSEKIKELVVTQLGYDTRVTILGHVQRGGTPSAFDRILASRMGVEAVIALLEATPDTPACVVSLNGNHAVRLPLMECVQMTQDVQKAMDERRFQDAVRLRGRSFAGNLNTYKRLAIKLPDDQIPKTNCNVAVINVGAPAAGMNAAVRSAVRVGIADGHRMLAIYDGFDGFAKGQIKEIGWTDVGGWTGQGGSILGTKRVLPGKYLEEIATQMRTHSINALLIIGGFEAYLGLLELSAAREKHEEFCVPMVMVPATVSNNVPGSDFSIGADTALNTITDTCDRIKQSASGTKRRVFIIETMGGYCGYLANMGGLAAGADAAYIFEEPFDIRDLQSNVEHLTEKMKTTIQRGLVLRNESCSENYTTDFIYQLYSEEGKGVFDCRKNVLGHMQQGGAPSPFDRNFGTKISARAMEWITAKLKEARGRGKKFTTDDSICVLGISKRNVIFQPVAELKKQTDFEHRIPKEQWWLKLRPLMKILAKYKASYDVSDSGQLEHVQPWSV"}}, "molecular_target": "endogenous DDX39B (human (endogenous in CRC cells)) (UniProt Q13838)", "assay": "co-IP; endogenous proteins immunoprecipitated from CRC cell lysates; for some pairs cells stably expressing mock or DDX39B, or treated with 150 ng/ml EGF", "note": "No constants are given. Whether binding was seen depends on the method and setting. In cells and extracts the contact can be indirect. Some binding calls cover weakened binding; strength is not graded here."}
{"binder": "B1", "values": [{"measurement": "binding", "result": "binds"}]}
